# Results from patent publication CN111378040A.
# Protein sequences, listed by entry. Tags and fused reporters are not part of them. Lines headed by an entry give the natural chain unless they say otherwise; changes in a name come on top. Chains listed by the source or under a name are the forms on record and can include a tag or linker. Residues count along the entry.
# ROR2胞外段蛋白 (Q01974, residues 34-403): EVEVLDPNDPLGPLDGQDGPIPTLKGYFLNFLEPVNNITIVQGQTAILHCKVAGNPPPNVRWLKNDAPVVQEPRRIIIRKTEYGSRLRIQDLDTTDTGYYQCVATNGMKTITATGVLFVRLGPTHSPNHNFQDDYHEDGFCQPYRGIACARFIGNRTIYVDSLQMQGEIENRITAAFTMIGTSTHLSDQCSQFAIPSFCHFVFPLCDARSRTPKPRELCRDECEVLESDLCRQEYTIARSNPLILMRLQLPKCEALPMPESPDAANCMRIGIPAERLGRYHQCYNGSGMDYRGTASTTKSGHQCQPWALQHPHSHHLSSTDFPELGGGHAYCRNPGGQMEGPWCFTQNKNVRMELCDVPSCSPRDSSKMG
# ROR2-Flag (Q01974, form named): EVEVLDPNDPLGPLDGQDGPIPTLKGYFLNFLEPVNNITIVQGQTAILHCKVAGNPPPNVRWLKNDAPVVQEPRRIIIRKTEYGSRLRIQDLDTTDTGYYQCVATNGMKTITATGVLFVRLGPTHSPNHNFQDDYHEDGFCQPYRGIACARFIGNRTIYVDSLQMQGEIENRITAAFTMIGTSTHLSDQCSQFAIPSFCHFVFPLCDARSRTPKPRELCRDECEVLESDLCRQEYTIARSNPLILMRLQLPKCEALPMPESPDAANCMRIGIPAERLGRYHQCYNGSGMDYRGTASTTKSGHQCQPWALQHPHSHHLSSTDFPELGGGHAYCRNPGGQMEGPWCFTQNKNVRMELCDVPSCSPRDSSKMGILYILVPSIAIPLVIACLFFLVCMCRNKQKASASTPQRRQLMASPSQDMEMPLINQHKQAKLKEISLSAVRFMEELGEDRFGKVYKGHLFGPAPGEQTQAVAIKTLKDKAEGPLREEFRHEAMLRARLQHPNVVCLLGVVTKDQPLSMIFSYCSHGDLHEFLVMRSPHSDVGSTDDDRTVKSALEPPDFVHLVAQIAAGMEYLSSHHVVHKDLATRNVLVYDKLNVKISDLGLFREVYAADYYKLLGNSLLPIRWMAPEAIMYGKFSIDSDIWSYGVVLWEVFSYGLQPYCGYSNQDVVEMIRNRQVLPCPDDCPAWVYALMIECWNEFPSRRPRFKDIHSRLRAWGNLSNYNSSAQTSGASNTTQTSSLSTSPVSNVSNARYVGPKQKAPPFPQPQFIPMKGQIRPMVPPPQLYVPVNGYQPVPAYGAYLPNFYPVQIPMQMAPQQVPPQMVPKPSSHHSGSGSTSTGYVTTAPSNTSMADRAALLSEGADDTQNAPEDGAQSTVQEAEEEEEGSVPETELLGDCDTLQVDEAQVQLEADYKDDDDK
# Where a chain is given by its changes, count along the chain named. These are yes or no findings as the source states them, for the method shown. Some entries that bind do so weakly or less than the wild type.
# B1: B22嵌合抗体 (antibody, human IgG1, kappa, V domains shown)
# VH: QVQLQQPGAALVKPGASVKLSCKASGYTFTNYWIQWMKQRPGQGLEWIGEINPSNGRTDYNEKFKNRATLTVDNSSTTAYMQLSSLTSEDSAVYYCANYRPGYWGQGTSVTVSS
# VL: DIVMTQSQKFMSTSVGDRVSVTCKASQNVGTNVAWFQQKPGQSPKPLIYLASYRYSGVPDRFTGSGSGTDFTLTISNVQSEDLAEYFCQQYNSYPLTFGGGTNLEIKR
# B2: B30嵌合抗体 (antibody, human IgG1, kappa, V domains shown)
# VH: QVQLQQSGPELVKPGASVRMSCKAAGYTFTSYLIHWVKQRPGQDLEWIGYINPYNDGTKYNEKFKDKATLTSDKSSSTAYMELSSLTSEDSAVYYCARSDVYYGVRFAYWGQGTLVTVSA
# VL: DIVLTQSPVIMSASPGEKVTMTCSASSSISYMYWYQQKPGSSPRLLIYDTSILASGVPVRFSGSGSGTSYSLTISRMEAEDAATYYCQQWSSYPFTFGSGTKLEIKR
# B3: A12嵌合抗体 (antibody, human IgG1, kappa, V domains shown)
# VH: B2 VH with F29I, I34M
# VL: DIVLTQSPAIMSASPGEKVTMTCSASSSVSYMHWYQQKSGTSPKRWIYDTSKLASGVPARFSGSGSGTSYSLTISSMEAEDAAIYYCQQWSSNPPTFGAGTKLELKR
# Biological target: ROR2胞外段蛋白 (UniProt Q01974)
# Assay: ELISA, ROR2 extracellular segment protein coated on plate, OD450
row,binding,Binder
1,binds,B1
2,binds,B2
3,binds,B3

# Biological target: ROR2-Flag (UniProt Q01974)
# Assay: immunoprecipitation and immunoblot, 293T cells transfected with pcDNA-ROR2-Flag
row,binding,Binder
1,binds,B1
2,binds,B2
3,binds,B3
